Laboratory results: US20170152290A1
Results are given in words; binding and its absence hold for the method and conditions named. Some entries that bind do so weakly or less than the wild type.

Sequences of proteins named here, by UniProt entry; tags and fusion partners are left off. Residues count along the entry.
UniProt P30533, residues 35-357: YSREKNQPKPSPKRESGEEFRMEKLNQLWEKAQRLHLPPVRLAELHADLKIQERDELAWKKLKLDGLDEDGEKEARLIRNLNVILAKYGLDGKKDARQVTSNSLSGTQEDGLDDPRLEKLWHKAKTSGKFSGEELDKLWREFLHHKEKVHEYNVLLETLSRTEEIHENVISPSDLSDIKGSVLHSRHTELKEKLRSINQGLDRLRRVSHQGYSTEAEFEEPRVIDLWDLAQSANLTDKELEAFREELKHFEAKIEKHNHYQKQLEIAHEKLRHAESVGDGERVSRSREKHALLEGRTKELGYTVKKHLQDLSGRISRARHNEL

Columns and labels:
[1] = biological target: sLRP1-CIV (cluster IV of LRP1 fused to the constant region of a human IgG1) (human); assay: SPR (Biacore X), sLRP1-CIV immobilised on CM5, analyte at 100 nM
[2] = biological target: sLRP1-CIV (cluster IV of LRP1 fused to the constant region of a human IgG1) (human); assay: SPR (Biacore X), sLRP1-CIV immobilised, maximal RU against RAP concentration
[3] = biological target: sLRP1-CIV (cluster IV of LRP1 fused to the constant region of a human IgG1) (human); assay: SPR (Biacore X), CM5 chip, sLRP1-CIV immobilised on Fc1 and rHSA on Fc2, analyte at 100 nM

Measured: binding

Receptor-Associated Protein (RAP) (from UniProt P30533 35-357) (ligand)
binds: all assays above
